These are yes or no findings as the source states them, for the method shown. Binding seen in cells or lysates may run through a third protein. Here binding means that the protein was enriched with, or labelled near, the bait; the list need not be complete.
Target: protein arginine methyltransferase 1 (PRMT1), endogenous (human (endogenous in LIU-LSC-1)) (UniProt Q99873)
Assay: affinity purification with mass spectrometry; PRMT1 or IgG antibodies on magnetic beads, LIU-LSC-1 lysate supernatant, overnight at 4 °C; eluate on 4–12% SDS-PAGE, bands excised, LC-MS

By UniProt entry, the sequences of proteins in these tests, tags left out.
UniProt Q99873: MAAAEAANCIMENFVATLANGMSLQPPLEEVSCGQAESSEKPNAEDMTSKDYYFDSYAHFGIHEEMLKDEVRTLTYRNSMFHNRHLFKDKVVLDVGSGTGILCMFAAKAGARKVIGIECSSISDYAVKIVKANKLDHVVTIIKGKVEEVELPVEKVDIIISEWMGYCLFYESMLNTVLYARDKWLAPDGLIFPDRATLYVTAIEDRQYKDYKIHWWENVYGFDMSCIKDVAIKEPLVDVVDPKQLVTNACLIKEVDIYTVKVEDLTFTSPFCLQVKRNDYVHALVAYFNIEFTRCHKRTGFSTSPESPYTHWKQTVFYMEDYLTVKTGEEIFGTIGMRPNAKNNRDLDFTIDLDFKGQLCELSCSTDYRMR
UniProt Q92922: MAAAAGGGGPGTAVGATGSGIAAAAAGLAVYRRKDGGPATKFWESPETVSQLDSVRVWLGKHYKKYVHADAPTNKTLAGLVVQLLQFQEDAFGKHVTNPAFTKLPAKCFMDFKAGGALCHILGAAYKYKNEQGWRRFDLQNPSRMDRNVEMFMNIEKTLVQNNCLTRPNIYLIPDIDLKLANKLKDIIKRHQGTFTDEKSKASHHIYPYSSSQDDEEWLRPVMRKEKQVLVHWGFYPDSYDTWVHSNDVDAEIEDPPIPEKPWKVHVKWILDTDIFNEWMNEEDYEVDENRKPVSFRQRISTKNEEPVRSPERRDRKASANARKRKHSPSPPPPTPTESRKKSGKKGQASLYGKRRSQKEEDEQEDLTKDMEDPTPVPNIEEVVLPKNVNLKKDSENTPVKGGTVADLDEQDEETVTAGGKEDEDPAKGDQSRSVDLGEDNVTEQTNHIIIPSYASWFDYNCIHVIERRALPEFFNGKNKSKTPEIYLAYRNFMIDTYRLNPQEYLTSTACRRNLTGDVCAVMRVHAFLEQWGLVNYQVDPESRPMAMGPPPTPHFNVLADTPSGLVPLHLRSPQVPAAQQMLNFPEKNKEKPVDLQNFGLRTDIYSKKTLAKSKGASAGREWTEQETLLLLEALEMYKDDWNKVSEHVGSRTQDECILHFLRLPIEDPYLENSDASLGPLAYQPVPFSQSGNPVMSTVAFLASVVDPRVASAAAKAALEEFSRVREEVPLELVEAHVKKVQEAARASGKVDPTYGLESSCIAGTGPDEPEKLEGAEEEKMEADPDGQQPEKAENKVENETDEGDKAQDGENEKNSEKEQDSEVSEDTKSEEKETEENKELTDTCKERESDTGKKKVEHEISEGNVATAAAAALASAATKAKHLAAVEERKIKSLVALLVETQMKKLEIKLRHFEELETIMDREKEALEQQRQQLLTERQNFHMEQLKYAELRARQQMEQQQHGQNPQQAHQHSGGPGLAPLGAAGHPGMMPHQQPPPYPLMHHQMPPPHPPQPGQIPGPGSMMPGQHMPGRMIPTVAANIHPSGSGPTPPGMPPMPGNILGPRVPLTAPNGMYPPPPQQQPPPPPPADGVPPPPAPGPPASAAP

binding: binds
Substance: SWI/SNF related, matrix associated, actin dependent regulator of chromatin subfamily C member 1 (SMARCC1), endogenous (from UniProt Q92922 1-1105)
